Measured values published in US20160193294A1.
Results are given in words; binding and its absence hold for the method and conditions named. Some results given as binding are weak or reduced against the parent protein; the word gives no strength. Sequences can lack the tags named with a protein.

Molecular target: T1, CD44 (mouse, on bone marrow cells) (mouse) (UniProt P15379)
T1 sequence (looked up): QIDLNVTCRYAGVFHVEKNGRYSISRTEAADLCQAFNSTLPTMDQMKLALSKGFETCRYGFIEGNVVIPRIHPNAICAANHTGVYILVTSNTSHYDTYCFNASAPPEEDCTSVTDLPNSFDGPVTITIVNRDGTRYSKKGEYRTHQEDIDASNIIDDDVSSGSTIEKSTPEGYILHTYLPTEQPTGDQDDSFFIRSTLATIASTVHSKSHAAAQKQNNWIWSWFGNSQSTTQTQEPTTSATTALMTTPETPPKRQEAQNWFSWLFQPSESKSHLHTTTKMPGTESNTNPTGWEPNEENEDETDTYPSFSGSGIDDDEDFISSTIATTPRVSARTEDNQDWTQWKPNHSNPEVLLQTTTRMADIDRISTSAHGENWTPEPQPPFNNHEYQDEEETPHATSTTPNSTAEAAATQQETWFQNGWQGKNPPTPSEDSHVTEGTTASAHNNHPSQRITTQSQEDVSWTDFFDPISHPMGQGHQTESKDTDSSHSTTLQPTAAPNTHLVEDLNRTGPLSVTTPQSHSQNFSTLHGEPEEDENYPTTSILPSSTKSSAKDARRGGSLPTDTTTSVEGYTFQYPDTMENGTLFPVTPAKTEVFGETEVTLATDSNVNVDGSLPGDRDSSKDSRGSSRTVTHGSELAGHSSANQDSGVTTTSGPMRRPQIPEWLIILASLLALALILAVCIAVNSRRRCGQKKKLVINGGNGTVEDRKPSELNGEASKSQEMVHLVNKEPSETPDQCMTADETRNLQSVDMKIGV
Test: flow cytometry: soluble selectin-IgMFc on bone marrow granulocytes of wild-type and knock-out mice

B1: recombinant human E-selectin extracellular domain fused with the Fc fragment of human IgM (Fc fusion, UniProt P16581 22-556, looked up, not shown: a dimerising Fc or GST)
chain: WSYNTSTEAMTYDEASAYCQQRYTHLVAIQNKEEIEYLNSILSYSPSYYWIGIRKVNNVWVWVGTQKPLTEEAKNWAPGEPNNRQKDEDCVEIYIKREKDVGMWNDERCSKKKLALCYTAACTNTSCSGHGECVETINNYTCKCDPGFSGLKCEQIVNCTALESPEHGSLVCSHPLGNFSYNSSCSISCDRGYLPSSMETMQCMSSGEWSAPIPACNVVECDAVTNPANGFVECFQNPGSFPWNTTCTFDCEEGFELMGAQSLQCTSSGNWDNEKPTCKAVTCRAVRQPQNGSVRCSHSPAGEFTFKSSCNFTCEEGFMLQGPAQVECTTQGQWTQQIPVCEAFQCTALSNPERGYMNCLPSASGSFRYGSSCEFSCEQGFVLKGSKRLQCGPTGEWDNEKPTCEAVRCDAVHQPPKGLVRCAHSPIGEFTYKSSCAFSCEEGFELHGSTQLECTSQGQWTEEVPSCQVVKCSSLAVPGKINMSCSGEPVFGTVCKFACPEGWTLNGSAARTCGATGHWSGLLPTCEAPTESNIP
Question: Which binding does the source give for B1 here?
Answer: binds
